{
  "source": "patent US4717715",
  "about": "(dated 1988)",
  "data": [
    {"experiment": "general procedure: Boc solid-phase peptide synthesis; benzhydrylamine resin (BHA); Boc-Arg(Tos)-O-Bzl-Resin for acids; DCC/HBT; DMAP for Pmp(4-MeBzl)", "settings": "whole synthesis, HPLC (0.1% TFA/CH3CN), scale of the general procedure 1.0 mmol, one disulfide bridge, sequence written open", "values": [
      {"substance": "Pmp(4-MeBzl)-D-Tyr(Et)-Phe-Val-Asn-Cys(4-MeBzl)-Arg(Tos)-D-Arg(Tos)-BHA", "final purity (method not given)": "98% pure"},
      {"substance": "Pmp(4-MeBzl)-D-Tyr(Et)-Phe-Val-Asn-Cys(4-MeBzl)-D-Arg(Tos)-Arg(Tos)-BHA", "final purity (method not given)": "96-97% pure"},
      {"substance": "Pmp-(4-MeBzl)-D-Tyr(Et)-Phe-Val-Asn-Cys(4-MeBzl)-Arg(Tos)-Lys(ClZ)-BHA", "final purity (method not given)": "96-97% pure"},
      {"substance": "Pmp-(4-MeBzl)-D-Tyr(Et)-Phe-Val-Asn-Cys(4-MeBzl)-Lys(ClZ)-Arg(Tos)-BHA", "final purity (method not given)": "98-99% pure"},
      {"substance": "Pmp-(4-MeBzl)-D-Tyr(Et)-Phe-Val-Asn-Cys(4-MeBzl)-N-MeArg-(Tos)-Arg(Tos)-BHA", "final purity (method not given)": "97-98% pure"}
    ]},
    {"experiment": "general procedure: Boc solid-phase peptide synthesis; benzhydrylamine resin (BHA); Boc-Arg(Tos)-O-Bzl-Resin for acids; DCC/HBT; DMAP for Pmp(4-MeBzl)", "settings": "whole synthesis, scale 1.0 mmol, one disulfide bridge, sequence written open", "units": {"crude mass": "g"}, "values": [
      {"substance": "Pmp-(4-MeBzl)-D-Tyr(Et)-Phe-Val-Asn-Cys(4-MeBzl)-D-Arg(Tos)-D-Arg(Tos)-BHA", "crude mass": ">1.0"}
    ]}
  ]
}
